# Laboratory results published in PubChem BioAssay AID588590 (National Center for Advancing Translational Sciences (NCATS), 2011).
# Protein sequences, listed by entry. Tags and fused reporters are not part of them. Lines headed by an entry give the natural chain unless they say otherwise; changes in a name come on top.
# UniProt Q9UNA4: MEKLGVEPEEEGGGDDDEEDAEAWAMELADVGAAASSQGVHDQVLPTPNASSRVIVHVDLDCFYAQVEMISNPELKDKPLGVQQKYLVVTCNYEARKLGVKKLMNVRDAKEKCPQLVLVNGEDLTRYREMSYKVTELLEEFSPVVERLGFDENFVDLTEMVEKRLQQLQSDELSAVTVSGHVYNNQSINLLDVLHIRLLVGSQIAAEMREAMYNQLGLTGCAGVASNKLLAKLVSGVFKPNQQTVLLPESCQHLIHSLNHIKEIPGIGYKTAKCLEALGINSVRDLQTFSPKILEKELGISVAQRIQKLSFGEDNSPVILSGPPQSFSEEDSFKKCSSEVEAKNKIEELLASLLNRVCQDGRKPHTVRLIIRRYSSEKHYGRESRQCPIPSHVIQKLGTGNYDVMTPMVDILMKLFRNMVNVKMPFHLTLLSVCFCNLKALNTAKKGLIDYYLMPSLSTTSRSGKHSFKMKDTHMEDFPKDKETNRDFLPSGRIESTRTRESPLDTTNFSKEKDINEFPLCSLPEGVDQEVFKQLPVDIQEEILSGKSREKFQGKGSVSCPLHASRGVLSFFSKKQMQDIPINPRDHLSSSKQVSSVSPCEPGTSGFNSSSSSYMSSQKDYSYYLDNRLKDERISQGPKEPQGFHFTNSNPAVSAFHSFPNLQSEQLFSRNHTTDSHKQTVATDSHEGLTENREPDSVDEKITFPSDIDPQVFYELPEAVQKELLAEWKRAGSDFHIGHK
# Several values for one entry are separate records, joined by “and”; a condition that tells them apart may be missing. Identical values can stand only once. The campaign covered roughly 390,000 compounds. About 4,000 (1%) were called active. The inconclusive results got no clear call from the source; some entries with a clear call stand among them for comparison. The call rests on the fitted dose curve; in most records, active means well fitted inhibition curve with a large enough effect; inconclusive means small, poorly fitted or top-dose-only effect, or another doubt; inactive means no such curve, though single readings can be large or run the other way. Potencies of inconclusive entries are doubtful fits and often do not repeat.
# Biological target: DNA polymerase iota (Homo sapiens) (UniProt Q9UNA4)
# Assay: qHTS for Inhibitors of Polymerase Iota
# Details: Pol iota fluorescent replication assay, 10 min; series mostly up to 115 µM
# Method in brief: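 Fluorescent replication assay read twice, at 0 min and 10 min after adding 50 nM (final) substrate. Enzyme (10 nM) and compounds were first incubated 15 min at room temperature; enzyme-free buffer wells were negative controls.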
# Potency means the concentration at half of the fitted maximal effect.
row,SMILES,Potency
1,CN(C)c1ccc(S(=O)(=O)NCC(=O)OCC(=O)c2ccc[nH]2)cc1[N+](=O)[O-],"inconclusive: 79.4 µM [inhibitor, single point]"
2,CCOc1ccccc1CNC(=O)c1cnc2sc(N3CCC(C)CC3)nn2c1=O,inactive
3,CCCCCNC(=O)c1ccc2c(=O)n(CCCOCC)c(=S)[nH]c2c1,"inconclusive: 100 µM [inhibitor, single point]"
4,CSCCC(NC(=O)c1ccccc1)C(=O)OCC(=O)NCc1ccco1 (stereo not given),active: 70.8 µM
5,N#C/C(=C\c1ccncc1)C(=O)Nc1ccc(C(=O)O)cc1,"inconclusive: 0.631 µM [inhibitor, full curve, poor fit]"
6,O=C(O)c1ccc(CNc2ccccc2C(=O)O)cc1,"inconclusive: 25.1 µM [inhibitor, full curve]"
7,CSc1nc(N(C)CCO)c2sc3nc(-c4ccco4)c4c(c3c2n1)CCC4,active: 1 µM
8,COc1ccc(-c2cc(C#N)nc(Cl)n2)cc1,inactive
9,CCOC(=O)c1c2c3c(cccc3[nH]c1=O)C(=O)c1ccccc1-2,inactive
10,CCOC(=O)c1ccccc1NC(=O)CSc1nc2[nH]ncc2c(=O)[nH]1,inactive
11,Cc1cccc(C(=O)NN2C(=O)C3C(c4ccccc4)C=CC(c4ccccc4)C3C2=O)c1 (stereo not given),"inconclusive: 17.8 µM [inhibitor, single point]"
12,N#CC1=C(S)N(c2ccccc2)C(c2ccc(-c3ccc(Cl)c(Cl)c3)o2)NC1=O (stereo not given),"inconclusive: 39.8 µM [inhibitor, single point]"
13,C=CCn1c(SCC(N)=O)nc2scc(-c3ccc(C)o3)c2c1=O,inactive
14,COc1ccccc1NC(=O)CCNS(=O)(=O)c1ccc2c(c1)CCCC(=O)N2,inactive
15,C#Cc1ccc(C(=O)NCc2ccc(N3CCCC3=O)cc2)cc1,"inconclusive: 50.1 µM [inhibitor, partial curve, poor fit]"
16,NS(=O)(=O)c1cc(Cl)c(NC(=O)COC(=O)c2ccccn2)c(Cl)c1,active: 39.8 µM
17,N#CCOc1ccccc1/C=C/c1nc2ccccc2c(=O)[nH]1,"inconclusive: 39.8 µM [inhibitor, full curve, poor fit]"
18,COC(=O)c1ccc(NC(=O)CSc2cn(CC(=O)N3CCCCCC3)c3ccccc23)cc1,inactive
19,COc1ccc(NC(=O)/C(C#N)=C/c2ccc(Sc3nncn3C)c([N+](=O)[O-])c2)cc1,"inconclusive: 39.8 µM [inhibitor, single point]"
20,COC(=O)CCCC1=CC2=CC(=O)C(C)(OC(=O)c3cccs3)C(=O)C2=CN1CCCCO (stereo not given),active: 22.4 µM
21,CC1(C)C(=O)Nc2ccccc2N1C(=O)COC(=O)c1cc(Cl)cc(Cl)c1,"inconclusive: 14.1 µM [inhibitor, full curve, poor fit]"
22,COC(=O)c1ccc2c(c1O)C(=O)c1ccccc1C2=O,"inconclusive: 12.6 µM [inhibitor, partial curve]"
23,COc1cccc(CN2CCC(n3nccc3NC(=O)CCOc3ccccc3)CC2)c1O,inactive
24,COC(=O)C1=C(C)N(CCCC(=O)O)C(=O)NC1c1ccc2c(c1)OCO2 (stereo not given),"inconclusive: 17.8 µM [inhibitor, full curve, poor fit]"

row,SMILES,Potency
1,Cc1ccc(OCC(=O)OCc2cc(=O)n3nc(-c4cccs4)sc3n2)cc1,"inconclusive: 89.1 µM [inhibitor, partial curve, poor fit]"
2,CN(C)/C=C1/Sc2ccccc2C1=O,inactive
3,CC(C(=O)O)n1nc2ccccc2n1 (stereo not given),"inconclusive: 12.6 µM [inhibitor, partial curve]"
4,Cc1cc(C(F)(F)F)c2c(C)nn(-c3ccccc3)c2n1,"inconclusive: 79.4 µM [inhibitor, single point]"
5,COC(C[C@@H]1O[C@@H]1[C@H](O)[C@H](C)OCc1ccccc1)OC,inactive
6,COc1cc(OC)cc(-c2nnc(SCC(=O)Nc3cccc(C(=O)O)c3)s2)c1,"inconclusive: 28.2 µM [inhibitor, partial curve, poor fit]"
7,O=C(O)CN1C(=O)S/C(=C\c2ccc3c(c2)OCO3)C1=O,inactive
8,CC1(C)C(C(=O)OCC(Cl)(Cl)Cl)N2C(=O)C(NC(=O)Cc3ccccc3)C2S1=O (stereo not given),"inconclusive: 89.1 µM [inhibitor, single point]"
9,O=C(O)c1ccc(N/N=C/c2ccc(OC(=O)c3cccc(Cl)c3)cc2)cc1,"inconclusive: 31.6 µM [inhibitor, single point]"
10,O=C(O)CC1Sc2ccccc2NC1=O (stereo not given),inactive
11,Cc1c(Cl)cccc1NC(=S)N1CCN(C(=O)c2ccco2)CC1,inactive
12,O=C(C1=C[C@@H]2[C@H]3C(=O)N(c4ccc(Cl)cc4)C(=O)[C@H]3[C@@H](C(=O)c3ccc(Cl)cc3)N2C=C1)c1ccccc1,"inconclusive: 1.26 µM [inhibitor, partial curve, poor fit]"
13,CCN1CC=C2C(C#N)=C(N)C(C#N)(C#N)C(c3cc(Cl)ccc3Cl)C2C1 (stereo not given),"inconclusive: 39.8 µM [inhibitor, single point]"
14,CCN1C(=O)c2cccc3c(N)ccc1c23,"inconclusive: 0.708 µM [inhibitor, full curve, poor fit]"
15,CC1(C)Cc2c(sc(NC(=S)NC(=O)c3ccccc3)c2C(=O)O)CO1,inactive
16,CS(=O)(=O)c1ccccc1-c1nnc(NC(=O)c2cccc(N3C(=O)CCC3=O)c2)o1,"inconclusive: 31.6 µM [inhibitor, partial curve]"
17,CCC(C(=O)NCc1ccco1)n1nc(-c2ccc(OC)cc2)ccc1=O (stereo not given),"inconclusive: 17.8 µM [inhibitor, partial curve, poor fit]"
18,CCN(CC)c1ccc(NC(=O)c2cc(S(=O)(=O)N3CCc4ccccc43)cn2C)c(C)c1,inactive
19,O=S(=O)(Nc1ccc(N=Nc2ccccc2)cc1)c1ccccc1,"inconclusive: 70.8 µM [inhibitor, partial curve, poor fit]"
20,O=C1COc2ccc(C(=O)COC(=O)c3ccccn3)cc2N1,inactive
21,Cc1cccc(CNC(=O)CCCN2C(=O)CCn3nc(-c4cn(C)c5ccccc45)cc32)c1,inactive
22,C=CCN(c1ccccc1)S(=O)(=O)c1cccc(C(=O)NNC(=O)c2ccncc2)c1,"inconclusive: 70.8 µM [inhibitor, partial curve, poor fit]"
23,O=C(COc1ccc(/C=N/NC(=O)c2ccccc2Br)cc1)Nc1ccccc1,inactive
24,CCCn1c(O)c(CN2CCCCC2)c(C)c(C#N)c1=O,"inconclusive: 25.1 µM [inhibitor, partial curve, poor fit]"

row,SMILES,Potency
1,NCCc1ccc(O)c(O)c1,"inconclusive: 89.1 µM [inhibitor, single point] and inconclusive: 35.5 µM [inhibitor, single point] and inconclusive: 79.4 µM [inhibitor, partial curve, poor fit]"
2,COc1ccc(OC)c(CCNC(=O)Cn2nc(C)c3c(C)n(-c4ccc(C)cc4)nc3c2=O)c1,"inconclusive: 56.2 µM [inhibitor, partial curve, poor fit]"
3,Oc1ccccc1N=N/C(=N/Nc1ccccc1O)c1ccccc1,"inconclusive: 31.6 µM [inhibitor, partial curve, poor fit]"
4,CC(C)CC(=O)Nc1nc(=S)ss1,"inconclusive: 39.8 µM [inhibitor, single point]"
5,Cc1cc(C)cc(-n2c(SCC(N)=O)nc3c(oc4ccccc43)c2=O)c1,inactive
6,CCOc1ccccc1NC(=O)N1CCN(Cc2nc3ccc(C)cc3o2)CC1,"inconclusive: 79.4 µM [inhibitor, single point]"
7,Cc1ccccc1C(C)NC(=O)COC(=O)Cn1cc(C(F)(F)F)ccc1=O (stereo not given),"inconclusive: 100 µM [inhibitor, single point]"
8,COc1ccc(C(C#N)c2nc3ccccc3nc2Cl)cc1 (stereo not given),"inconclusive: 3.16 µM [inhibitor, full curve]"
9,COc1ccc(N=Nc2cc(OC)c(N)cc2OC)cc1,"inconclusive: 28.2 µM [inhibitor, single point]"
10,Oc1ccc(Cl)cc1N=Nc1ccccc1,inactive
11,O=C(O)COc1ccc2c(c1)O/C(=C\c1ccco1)C2=O,active: 11.2 µM
12,O=C(C1CCC1)N1CCN(S(=O)(=O)c2ccccc2)CC1,"inconclusive: 89.1 µM [inhibitor, single point]"
13,CCC(=O)Nc1c(S(=O)(=O)c2ccccc2)c2nc3ccccc3nc2n1Cc1ccccc1,"inconclusive: 10 µM [inhibitor, partial curve, poor fit]"
14,COc1ccccc1C(C)NC(=O)c1ccc(C)o1 (stereo not given),"inconclusive: 112 µM [inhibitor, single point]"
15,O=C(CNC(=O)c1ccc2ccccc2c1)NCc1ccc(F)cc1,inactive
16,COc1cc(/C=C(\C#N)C(=O)Nc2ccc(C(=O)O)cc2)ccc1OC(=O)c1cccc(F)c1,"inconclusive: 14.1 µM [inhibitor, full curve]"
17,O=[N+]([O-])c1ccc(O/N=[N+](\[O-])N2CCCCC2)c([N+](=O)[O-])c1,inactive
18,COc1ccc(C(=O)NCCn2cc(SCC(=O)NCCc3ccc(OC)c(OC)c3)c3ccccc32)cc1,inactive
19,COC(=O)CS(=O)(=O)c1nc2ccccc2nc1N1CCCCC1,inactive
20,O=C(NCc1ccco1)C1CC(c2ccccc2C(F)(F)F)=NO1 (stereo not given),"inconclusive: 10 µM [inhibitor, single point]"
21,CC(Sc1nc2ccc(Br)cc2[nH]1)C(=O)O (stereo not given),inactive
22,COc1cc(/C=C2/SC(=O)NC2=O)ccc1Oc1ccc([N+](=O)[O-])cc1[N+](=O)[O-],"inconclusive: 15.8 µM [inhibitor, partial curve, poor fit]"
